Assay results: PubChem BioAssay AID1487 (National Center for Advancing Translational Sciences (NCATS), 2009)
The other results are listed elsewhere or left out. These are further read-outs of the screen, such as a control signal, another cell line or another target. No call is given for them. The list favours compounds with an active or inconclusive main result. The note in brackets gives the kind of curve behind each potency; many fits are weak.

Assay: qHTS Assay for Modulators of Lamin A Splicing
Details: HeLa LMNA splicing GFP/RFP minigene ratio, 48 h
In short: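 Read-out is the ratio of GFP to DsRed2 object intensity, acquired by 488 nm laser-scanning cytometry on HeLa lamin A-EGFP minigene reporter cells. Compound incubation 48 hrs at 37 °C in Opti-MEM with 2% FBS; DMSO 0.5% final.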

[1] = measured here: RFP viability control channel
[2] = measured here: GFP splicing reporter channel

| SMILES | AC50 [1] | AC50 [2] |
| --- | --- | --- |
| C=CCOC(=O)C1=C(C)NC(SC)=C(C#N)C1c1ccc(OCC)cc1 (centres undefined) | 12.6 µM [rising, partial curve, poor fit] |  |
| Cc1cccc(N2CCN(C(=O)c3cc4ccc5cccnc5c4[nH]3)CC2)c1C |  | 3.16 µM [falling, single point] |
| CCOc1ccc2nc(NC(=O)c3cc([N+](=O)[O-])ccc3N3CCOCC3)sc2c1 | 31.6 µM [rising, single point] | 12.6 µM [rising, single point] |
| C/C(N)=C(/C#N)C(=O)COC(=O)CNS(=O)(=O)c1ccc(F)c(F)c1F | 0.0355 µM [falling, full curve] | 35.5 µM [falling, partial curve, poor fit] |
| O=C(c1cccc(S(=O)(=O)N2CCCC2)c1)c1cccc(S(=O)(=O)N2CCCC2)c1 | 11.2 µM [rising, partial curve] | 5.62 µM [rising, full curve] |
| O=C(NC(=S)Nc1nc(-c2ccccc2)cs1)c1ccco1 |  | 0.562 µM [rising, partial curve] |
| O=C(O)C1OC(Oc2cc3oc(-c4ccccc4)cc(=O)c3c(O)c2O)C(O)C(O)C1O (centres undefined) |  | 0.708 µM [falling, full curve, poor fit] |
| Clc1ccccc1CNCCCSc1nnnn1-c1ccccc1 | 0.0631 µM [falling, full curve, poor fit] | 0.1 µM [falling, full curve] |
| O=c1c2ccc([N+](=O)[O-])cc2ncn1CCOc1ccccc1 |  | 35.5 µM [falling, single point] |
| CCC(CC)NC(=O)CO/N=C/c1ccccc1OC(F)F | 0.00398 µM [falling, partial curve, poor fit] |  |
| CC(=O)N1N=C(c2ccccc2)CC1c1cn(C)c2ccccc12 (centres undefined) | 14.1 µM [rising, single point] |  |
| O=c1cc(N2CCCCC2)c(-c2ccccc2)nn1Cc1ccc(Cl)cc1 | 20 µM [falling, partial curve] | 17.8 µM [falling, single point] |
| Cc1cc(C)cc(N2C(=O)CSC23C(=O)N(CC(N)=O)c2ccccc23)c1 (centres undefined) |  | 1 µM [falling, single point] |
| O=C(O)c1cc(NS(=O)(=O)c2ccc(NC3CCCCC3)c([N+](=O)[O-])c2)cc(C(=O)O)c1 | 0.0224 µM [rising, full curve, poor fit] |  |
| CC1(C)C(c2ccc(Cl)cc2)=[N+]([O-])C2(CCCC/C2=N\O)N1O (centres undefined) | 1 µM [falling, full curve, poor fit] |  |
| CCOC(=O)C1=C(Cc2ccc(C)cc2)C(=O)c2ccccc2C1=O | 7.08 µM [rising, partial curve] | 12.6 µM [falling, single point] |
| COCCN(Cc1ccc(C)c(Br)c1)S(=O)(=O)c1ccc2[nH]c(=O)ccc2c1 | 8.91 µM [falling, partial curve] |  |
| Cc1cc(C(C)(C)C)oc1C(=O)N(CC(=O)NC1CCCC1)Cc1ccccc1Cl | 20 µM [rising, single point] |  |
| COc1ccc(-c2cc(C(F)(F)F)nc(S(=O)(=O)CCCC(=O)Nc3cc(C)on3)n2)cc1OC |  | 0.355 µM [falling, partial curve] |
| c1ccc2c(c1)OCC(CNc1ncnc3sccc13)O2 (centres undefined) | 0.447 µM [rising, full curve] | 0.224 µM [rising, full curve, poor fit] |
| CN(c1cccc(NC(=O)CN(c2cccc(Cl)c2)S(=O)(=O)c2ccc(Cl)cc2)c1)S(C)(=O)=O | 15.8 µM [rising, single point] |  |
| NNc1nc2ccc(F)cc2s1 | 5.62 µM [rising, single point] |  |
| COc1ccc(NC(=O)NC23CC4(C)CC(C)(CC(C)(C4)C2)C3)cc1 | 7.08 µM [rising, full curve, poor fit] |  |
| C=CCN1C(c2ccc(Br)cc2)=CS/C1=C(/C#N)c1nnc(N2CCOCC2)n1-c1ccccc1 | 25.1 µM [rising, single point] | 31.6 µM [rising, single point] |
| CCC(C)[C@H](NC(=O)N1CCN(c2cccc(C(F)(F)F)c2)CC1)C(=O)OC (some centres undefined) | 10 µM [rising, partial curve, poor fit] |  |
| COc1ccc(/C=C/C(=O)c2ccccc2)cc1COc1ccccc1F | 17.8 µM [falling, partial curve] | 15.8 µM [falling, partial curve] |
| O=C(N/N=C/c1ccc(OCc2cnc(Cl)s2)cc1)c1ccncc1 | 0.00355 µM [falling, full curve, poor fit] |  |

Already shown: an excerpt of the list.

| SMILES | AC50 [1] | AC50 [2] |
| --- | --- | --- |
| O=C(c1cccc(S(=O)(=O)N2CCCC2)c1)c1cccc(S(=O)(=O)N2CCCC2)c1 | 11.2 µM [rising, partial curve] | 5.62 µM [rising, full curve] |
| O=C(NC(=S)Nc1nc(-c2ccccc2)cs1)c1ccco1 |  | 0.562 µM [rising, partial curve] |
| O=C(O)C1OC(Oc2cc3oc(-c4ccccc4)cc(=O)c3c(O)c2O)C(O)C(O)C1O (centres undefined) |  | 0.708 µM [falling, full curve, poor fit] |
| Clc1ccccc1CNCCCSc1nnnn1-c1ccccc1 | 0.0631 µM [falling, full curve, poor fit] | 0.1 µM [falling, full curve] |
| O=c1c2ccc([N+](=O)[O-])cc2ncn1CCOc1ccccc1 |  | 35.5 µM [falling, single point] |
| CCC(CC)NC(=O)CO/N=C/c1ccccc1OC(F)F | 0.00398 µM [falling, partial curve, poor fit] |  |
| CC(=O)N1N=C(c2ccccc2)CC1c1cn(C)c2ccccc12 (centres undefined) | 14.1 µM [rising, single point] |  |
| O=c1cc(N2CCCCC2)c(-c2ccccc2)nn1Cc1ccc(Cl)cc1 | 20 µM [falling, partial curve] | 17.8 µM [falling, single point] |
| Cc1cc(C)cc(N2C(=O)CSC23C(=O)N(CC(N)=O)c2ccccc23)c1 (centres undefined) |  | 1 µM [falling, single point] |
| O=C(O)c1cc(NS(=O)(=O)c2ccc(NC3CCCCC3)c([N+](=O)[O-])c2)cc(C(=O)O)c1 | 0.0224 µM [rising, full curve, poor fit] |  |
| CC1(C)C(c2ccc(Cl)cc2)=[N+]([O-])C2(CCCC/C2=N\O)N1O (centres undefined) | 1 µM [falling, full curve, poor fit] |  |

The results go on:

| SMILES | AC50 [1] | AC50 [2] |
| --- | --- | --- |
| CC(C)OCCCN1CN(S(=O)(=O)c2ccc(Cl)cc2)c2nc3ccccc3nc21 | 35.5 µM [rising, single point] |  |
| CC(OC(=O)c1cccc(S(=O)(=O)Nc2cccc(C(F)(F)F)c2)c1)C(=O)Nc1ccc2c(c1)OCCO2 (centres undefined) | 14.1 µM [rising, single point] |  |
| CCOC(=O)C1=C[C@@]2(CC)CCCN3CCc4c(n1c1ccccc41)[C@H]32 | 0.00355 µM [falling, full curve, poor fit] | 0.00631 µM [falling, full curve] |
| COc1ccc(Cl)cc1Nc1nc(N)nc(C(F)(F)F)n1 |  | 7.08 µM [rising, full curve, poor fit] |
| COc1ccc(C)cc1-n1c(SCC(=O)NCc2ccco2)nc2c([nH]c3ccccc32)c1=O |  | 10 µM [falling, partial curve, poor fit] |
| CNCCC=C1c2ccccc2C=Cc2ccccc21 | 6.31 µM [falling, single point] | 0.158 µM [falling, full curve, poor fit] |
| COc1cccc(C(=O)NNC(=S)NC2CCCCC2)c1 | 14.1 µM [rising, single point] |  |
| O=C(CSc1nnc2ccc3ccccc3n12)N1CCOCC1 | 0.0224 µM [falling, full curve, poor fit] | 0.0316 µM [falling, full curve, poor fit] |
| Cc1ccc(Cn2ncc3c(N4CCN(c5ccccc5C)CC4)ncnc32)cc1 | 10 µM [rising, partial curve] |  |
| O=[N+]([O-])/C(=C\Nc1ccccc1)S(=O)(=O)c1ccccc1 |  | 4.47 µM [falling, single point] |
| Cc1ccc(CCNC(=O)CCCn2c(=O)c3cccn3c3ccc(F)cc32)cc1 | 35.5 µM [falling, single point] | 2.82 µM [falling, single point] |
| COc1ccc2nc(NCCCNC(=O)c3cc(OC)c(OC)c(OC)c3)c(C#N)cc2c1 | 7.08 µM [rising, partial curve] |  |
| Clc1ccccc1/C=N/NC1=Nc2cccc3cccc1c23 | 0.158 µM [rising, full curve, poor fit] |  |
| NCC(=O)CCC(=O)O | 0.000794 µM [rising, full curve, poor fit] | 5.01 µM [rising, partial curve, poor fit] |
| Cc1ccc(C(=O)N/C(=C\C=C\c2ccccc2)C(=O)NCc2ccco2)cc1 | 31.6 µM [rising, single point] | 31.6 µM [rising, single point] |
| NC(=O)C[C@@H]1NC(=O)c2cc([N+](=O)[O-])cc(F)c2NCCCC[C@@H](C(N)=O)NC(=O)[C@H](CO)NC1=O | 0.00501 µM [falling, full curve, poor fit] | 0.00501 µM [falling, full curve, poor fit] |
| COc1ccc(N(C)S(=O)(=O)c2cccc(C(=O)NC3CCC(C)CC3)c2)cc1 (centres undefined) | 0.0447 µM [falling, full curve, poor fit] | 0.355 µM [falling, partial curve, poor fit] |
| CCOC(=O)c1ccc(NC(=S)N(CCN2CCCCCC2)Cc2cccs2)cc1 |  | 17.8 µM [falling, single point] |
| COC(=O)c1cccc(NC(=O)c2nn(C)c(=O)c3ccccc23)c1 |  | 35.5 µM [rising, single point] |
| O=C(CNC(=O)c1ccc(Cl)cc1)NCC(F)(F)F |  | 6.31 µM [rising, partial curve, poor fit] |
| C/C(=N\Nc1cccc2cccnc12)c1ccc[nH]1 | 14.1 µM [rising, partial curve, poor fit] | 0.2 µM [rising, full curve] |
| CCCN(CCC)S(=O)(=O)c1ccc(C(=O)N2CCCc3ccccc32)cc1 | 31.6 µM [rising, single point] |  |
| N#Cc1c(Nc2cccc(F)c2)sc2c(O)cc(=O)[nH]c12 | 35.5 µM [rising, single point] |  |
| COc1ccc(/C(N)=N/OC(=O)Cc2cccs2)cc1OC | 0.0891 µM [rising, full curve, poor fit] | 0.0282 µM [rising, partial curve, poor fit] |
| Cc1ccc(N(CC(=O)Nc2ccc(F)c(Cl)c2)S(=O)(=O)c2c(C)noc2C)cc1 | 20 µM [rising, single point] | 35.5 µM [rising, single point] |
| Cc1nn(CC(O)CN2c3ccccc3Sc3ccccc32)c(C)c1Br (centres undefined) | 35.5 µM [falling, partial curve, poor fit] | 22.4 µM [falling, single point] |
